The values that follow come from paper PMC4413655.

Test [1] addresses T1, IFIT3-STrEP-tag fusion protein (IFN-induced protein with tetratricopeptide repeats 3 fused at its C-end to the One-STrEP Tag) (human) (UniProt O14879).
T1 sequence: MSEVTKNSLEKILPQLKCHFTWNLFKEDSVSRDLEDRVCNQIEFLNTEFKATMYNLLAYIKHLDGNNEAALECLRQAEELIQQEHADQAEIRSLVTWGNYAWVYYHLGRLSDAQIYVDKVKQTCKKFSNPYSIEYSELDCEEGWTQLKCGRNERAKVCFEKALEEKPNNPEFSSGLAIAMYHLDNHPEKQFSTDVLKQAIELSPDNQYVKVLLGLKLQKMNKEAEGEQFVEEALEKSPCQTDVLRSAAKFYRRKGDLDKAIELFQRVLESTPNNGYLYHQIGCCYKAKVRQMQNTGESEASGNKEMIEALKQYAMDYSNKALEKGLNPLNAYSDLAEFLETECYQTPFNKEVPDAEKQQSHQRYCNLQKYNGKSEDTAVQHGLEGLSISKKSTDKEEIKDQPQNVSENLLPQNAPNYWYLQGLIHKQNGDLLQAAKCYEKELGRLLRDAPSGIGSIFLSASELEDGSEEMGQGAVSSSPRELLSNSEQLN
Briefly: pull-down; One-STrEP affinity chromatography: lysate of L3.6pl cells transfected with pEXPR-IFIT3 bound on affinity columns, extensively washed, eluted with biotin buffer; fractions analysed by Western blot; empty-vector lysate as negative control.

Test [2] deals with JNK (human (endogenous in L3.6pl)). In words: co-IP; immunoprecipitation with anti-JNK and anti-STAT1 antibodies from L3.6pl lysate, Western blot with anti-IFIT3 antibody. In general terms: In western blotting, separated proteins are transferred to a membrane and probed.

These are yes or no findings as the source states them, for the method shown. Binding seen in cells or lysates may run through a third protein. A result given as binding can be weak or reduced; the word gives no strength. For part of these data: Tags and fused reporters may be left off the sequences shown.

In the case of Akt (human (endogenous in L3.6pl)), the binding result in test [1] was “no binding”.
Turning to JNK (human (endogenous in L3.6pl)), in test [1], the binding result was “binds”.

B1: IFN-induced protein with tetratricopeptide repeats 3 (IFIT3) (protein, UniProt O14879 1-490)
chain: T1 sequence
For the molecule B1, in test [2], the binding entry is on record as “binds”.
